{"source": "patent US20100233231A1", "about": "“USE OF CRYOGENIC PROCESSING TO OBTAIN A SUBSTANTIALLY-THICKENED FORMULATION” (priority 2009, published 2010)", "key": {"[1]": {"assay": "Particle size analysis before and after cryogrinding", "type": "physicochemical", "settings": "Example 10: cryoground with cetyl alcohol, washed with 4 exchanges of hexane"}, "[2]": {"assay": "Consistency and homogeneity of the formulation after cryo-processing (observation)", "type": "physicochemical", "settings": "Example 10: 316 mg with 753 mg cetyl alcohol, cryoground 8 cycles", "procedure": "Fish oil was cured to a film with the use of heat.\nIt was processed in a Spex Certiprep cryogrinder for 8 cycles, each cycle lasting 2.0 minutes and with a 2.0 minute between-cycle cool down to maintain the system at cryogenic temperatures."}, "[3]": {"assay": "Rheology on Anton Paar MCR 301 rheometer (flow curve, frequency, amplitude and temperature sweeps)"}, "[4]": {"settings": "30% in 70% fish oil 30% vitamin E, cryo-processed 8 cycles, sheared"}, "[5]": {"settings": "control: 30% in 70% fish oil 30% vitamin E, not cryo processed"}}, "note": "At least one compound was matched to its structure with a doubt left.", "data": [{"smiles": "CO[C@H]1C[C@@H]2CC[C@@H](C)[C@@](O)(O2)C(=O)C(=O)N2CCCC[C@H]2C(=O)O[C@H]([C@H](C)C[C@@H]2CC[C@@H](O)[C@H](OC)C2)CC(=O)[C@H](C)/C=C(\\C)[C@@H](O)[C@@H](OC)C(=O)[C@H](C)C[C@H](C)/C=C/C=C/C=C/1C", "note": "[Rapamycin]", "values": [{"measurement": "particle size on microscope slide", "setting": "[1]", "value": "substantially smaller than non processed material"}, {"measurement": "homogeneity of mixture", "setting": "[2]", "value": "completely homogenous"}, {"measurement": "rheology and appearance on rheometer", "setting": "[3]; [4]", "value": "highly viscous and shear thinning with small crystals evident throughout the sample"}, {"measurement": "viscosity at 1 1/s from flow curve", "setting": "[3]; [4]", "value": 1.2, "unit": "million"}, {"measurement": "rheology and appearance on rheometer", "setting": "[3]; [5]", "value": "very non homogeneous with drug crystals on the bottom and oil-based coating on top"}, {"measurement": "viscosity at 1 1/s from flow curve", "setting": "[3]; [5]", "value": 1932, "unit": "cps"}, {"measurement": "rheology in frequency sweep", "setting": "[3]; drug dispersion not cryoground", "value": "consistent with a thixotropic fluid at all strains"}]}]}
